Laboratory results taken from article PMC9605029.
No constants are given. Whether binding was seen depends on the method and setting. Binding seen in cells or lysates may run through a third protein. Some binding calls cover weakened binding; strength is not graded here.

T1: methyltransferase-like 14 (METTL14) protein (human (endogenous in BCa cells)) (UniProt Q9HCE5)
T1 sequence: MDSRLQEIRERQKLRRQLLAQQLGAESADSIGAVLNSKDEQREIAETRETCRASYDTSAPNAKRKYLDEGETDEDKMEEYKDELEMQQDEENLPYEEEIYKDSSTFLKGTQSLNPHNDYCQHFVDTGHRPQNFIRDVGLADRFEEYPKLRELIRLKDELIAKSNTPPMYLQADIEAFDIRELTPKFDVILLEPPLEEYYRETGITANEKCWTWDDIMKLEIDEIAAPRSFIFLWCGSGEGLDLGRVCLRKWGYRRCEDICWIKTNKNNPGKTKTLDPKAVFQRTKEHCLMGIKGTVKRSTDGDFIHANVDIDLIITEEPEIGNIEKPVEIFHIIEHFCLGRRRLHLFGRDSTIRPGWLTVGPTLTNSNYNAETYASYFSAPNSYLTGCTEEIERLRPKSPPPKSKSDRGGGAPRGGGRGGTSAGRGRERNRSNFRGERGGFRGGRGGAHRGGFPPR

T2: ubiquitin specific peptidase 38 (USP38) protein (human (endogenous in BCa cells)) (UniProt Q8NB14)
T2 sequence: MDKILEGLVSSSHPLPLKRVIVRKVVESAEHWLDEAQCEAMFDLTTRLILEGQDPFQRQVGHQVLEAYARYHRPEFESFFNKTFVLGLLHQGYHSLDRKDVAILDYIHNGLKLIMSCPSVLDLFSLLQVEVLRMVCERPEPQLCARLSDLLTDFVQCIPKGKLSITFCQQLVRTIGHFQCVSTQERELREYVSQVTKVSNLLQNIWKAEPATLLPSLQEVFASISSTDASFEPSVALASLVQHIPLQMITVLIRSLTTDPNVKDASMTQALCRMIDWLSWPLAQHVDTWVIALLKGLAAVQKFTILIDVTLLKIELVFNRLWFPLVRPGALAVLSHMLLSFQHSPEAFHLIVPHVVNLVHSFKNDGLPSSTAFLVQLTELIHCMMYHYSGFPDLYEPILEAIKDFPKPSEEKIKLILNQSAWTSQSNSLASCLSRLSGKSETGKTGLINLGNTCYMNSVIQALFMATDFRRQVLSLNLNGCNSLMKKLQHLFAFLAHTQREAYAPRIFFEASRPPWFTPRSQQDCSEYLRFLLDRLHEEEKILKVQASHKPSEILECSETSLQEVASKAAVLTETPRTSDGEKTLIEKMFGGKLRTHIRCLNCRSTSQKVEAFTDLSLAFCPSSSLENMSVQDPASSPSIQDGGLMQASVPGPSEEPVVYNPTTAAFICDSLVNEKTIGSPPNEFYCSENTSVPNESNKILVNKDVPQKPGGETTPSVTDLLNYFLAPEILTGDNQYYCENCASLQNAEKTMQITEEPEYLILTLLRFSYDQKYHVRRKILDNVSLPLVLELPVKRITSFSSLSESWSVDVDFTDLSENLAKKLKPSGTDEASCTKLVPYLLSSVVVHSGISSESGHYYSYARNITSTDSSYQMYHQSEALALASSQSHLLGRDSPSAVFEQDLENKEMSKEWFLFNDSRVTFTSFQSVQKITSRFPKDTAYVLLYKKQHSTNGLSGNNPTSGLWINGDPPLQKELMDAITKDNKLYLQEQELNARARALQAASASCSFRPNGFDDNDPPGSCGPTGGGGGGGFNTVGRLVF


Assays:
[1] = target: T1, methyltransferase-like 14 (METTL14) protein (human (endogenous in BCa cells)); assay: co-IP; total proteins extracted from BCa cells, incubated with anti-METTL14, anti-USP38 or anti-IgG conjugated beforehand with Protein A/G Agarose beads; precipitates assessed by western blot
[2] = target: T2, ubiquitin specific peptidase 38 (USP38) protein (human (endogenous in BCa cells)); assay: as above

binding [1] | binding [2] | Binder
binds | – | ubiquitin specific peptidase 38 (USP38) protein (enzyme, UniProt Q8NB14 1-1042) MDKILEGLVSSSHPLPLKRVIVRKVVESAEHWLDEAQCEAMFDLTTRLILEGQDPFQRQVGHQVLEAYARYHRPEFESFFNKTFVLGLLHQGYHSLDRKDVAILDYIHNGLKLIMSCPSVLDLFSLLQVEVLRMVCERPEPQLCARLSDLLTDFVQCIPKGKLSITFCQQLVRTIGHFQCVSTQERELREYVSQVTKVSNLLQNIWKAEPATLLPSLQEVFASISSTDASFEPSVALASLVQHIPLQMITVLIRSLTTDPNVKDASMTQALCRMIDWLSWPLAQHVDTWVIALLKGLAAVQKFTILIDVTLLKIELVFNRLWFPLVRPGALAVLSHMLLSFQHSPEAFHLIVPHVVNLVHSFKNDGLPSSTAFLVQLTELIHCMMYHYSGFPDLYEPILEAIKDFPKPSEEKIKLILNQSAWTSQSNSLASCLSRLSGKSETGKTGLINLGNTCYMNSVIQALFMATDFRRQVLSLNLNGCNSLMKKLQHLFAFLAHTQREAYAPRIFFEASRPPWFTPRSQQDCSEYLRFLLDRLHEEEKILKVQASHKPSEILECSETSLQEVASKAAVLTETPRTSDGEKTLIEKMFGGKLRTHIRCLNCRSTSQKVEAFTDLSLAFCPSSSLENMSVQDPASSPSIQDGGLMQASVPGPSEEPVVYNPTTAAFICDSLVNEKTIGSPPNEFYCSENTSVPNESNKILVNKDVPQKPGGETTPSVTDLLNYFLAPEILTGDNQYYCENCASLQNAEKTMQITEEPEYLILTLLRFSYDQKYHVRRKILDNVSLPLVLELPVKRITSFSSLSESWSVDVDFTDLSENLAKKLKPSGTDEASCTKLVPYLLSSVVVHSGISSESGHYYSYARNITSTDSSYQMYHQSEALALASSQSHLLGRDSPSAVFEQDLENKEMSKEWFLFNDSRVTFTSFQSVQKITSRFPKDTAYVLLYKKQHSTNGLSGNNPTSGLWINGDPPLQKELMDAITKDNKLYLQEQELNARARALQAASASCSFRPNGFDDNDPPGSCGPTGGGGGGGFNTVGRLVF
– | binds | methyltransferase-like 14 (METTL14) protein (protein, UniProt Q9HCE5 1-456) MDSRLQEIRERQKLRRQLLAQQLGAESADSIGAVLNSKDEQREIAETRETCRASYDTSAPNAKRKYLDEGETDEDKMEEYKDELEMQQDEENLPYEEEIYKDSSTFLKGTQSLNPHNDYCQHFVDTGHRPQNFIRDVGLADRFEEYPKLRELIRLKDELIAKSNTPPMYLQADIEAFDIRELTPKFDVILLEPPLEEYYRETGITANEKCWTWDDIMKLEIDEIAAPRSFIFLWCGSGEGLDLGRVCLRKWGYRRCEDICWIKTNKNNPGKTKTLDPKAVFQRTKEHCLMGIKGTVKRSTDGDFIHANVDIDLIITEEPEIGNIEKPVEIFHIIEHFCLGRRRLHLFGRDSTIRPGWLTVGPTLTNSNYNAETYASYFSAPNSYLTGCTEEIERLRPKSPPPKSKSDRGGGAPRGGGRGGTSAGRGRERNRSNFRGERGGFRGGRGGAHRGGFPPR
